# Measurements as given in article PMC4848314.
# No constants are given. Whether binding was seen depends on the method and setting. Binding seen in cells or lysates may run through a third protein. Some results given as binding are weak or reduced against the parent protein; the word gives no strength.
# T1: FLD (Arabidopsis) (UniProt Q9CAE3)
# T1 sequence: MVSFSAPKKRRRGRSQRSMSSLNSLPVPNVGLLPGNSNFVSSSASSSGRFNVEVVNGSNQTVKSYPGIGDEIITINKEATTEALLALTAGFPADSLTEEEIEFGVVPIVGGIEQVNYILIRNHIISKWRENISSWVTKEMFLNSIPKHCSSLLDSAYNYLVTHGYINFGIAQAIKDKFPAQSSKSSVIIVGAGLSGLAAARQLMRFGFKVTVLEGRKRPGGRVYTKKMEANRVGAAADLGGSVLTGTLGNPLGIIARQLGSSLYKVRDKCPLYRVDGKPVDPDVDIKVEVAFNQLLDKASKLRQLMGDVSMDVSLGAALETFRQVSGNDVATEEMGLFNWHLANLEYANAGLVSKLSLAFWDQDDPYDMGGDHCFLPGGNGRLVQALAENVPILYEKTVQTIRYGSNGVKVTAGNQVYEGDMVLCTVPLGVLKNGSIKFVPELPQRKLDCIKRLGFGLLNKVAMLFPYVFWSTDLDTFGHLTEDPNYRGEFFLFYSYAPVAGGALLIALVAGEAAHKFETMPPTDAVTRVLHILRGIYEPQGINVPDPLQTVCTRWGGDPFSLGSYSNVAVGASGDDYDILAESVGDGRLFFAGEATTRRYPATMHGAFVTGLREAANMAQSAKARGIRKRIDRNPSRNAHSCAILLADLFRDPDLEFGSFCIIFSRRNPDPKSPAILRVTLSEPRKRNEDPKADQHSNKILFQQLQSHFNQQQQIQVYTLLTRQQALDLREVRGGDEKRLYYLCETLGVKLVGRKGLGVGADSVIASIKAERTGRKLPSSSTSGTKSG
# T2: HDA6 (Arabidopsis) (UniProt Q9FML2)
# T2 sequence: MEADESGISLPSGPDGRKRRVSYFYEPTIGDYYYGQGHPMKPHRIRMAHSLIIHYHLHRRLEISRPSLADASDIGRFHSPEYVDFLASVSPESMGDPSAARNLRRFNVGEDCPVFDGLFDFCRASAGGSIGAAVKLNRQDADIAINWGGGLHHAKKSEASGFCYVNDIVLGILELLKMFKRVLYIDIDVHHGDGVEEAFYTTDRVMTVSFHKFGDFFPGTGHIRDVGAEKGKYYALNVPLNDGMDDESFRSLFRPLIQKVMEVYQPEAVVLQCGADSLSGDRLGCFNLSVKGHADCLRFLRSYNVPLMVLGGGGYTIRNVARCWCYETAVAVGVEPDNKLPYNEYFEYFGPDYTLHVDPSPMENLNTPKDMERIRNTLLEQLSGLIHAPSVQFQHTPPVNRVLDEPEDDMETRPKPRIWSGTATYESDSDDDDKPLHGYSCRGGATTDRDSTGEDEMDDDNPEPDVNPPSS
# Legend:
# FLD (Arabidopsis) = biological target: T1, FLD (Arabidopsis); assay: split reporter; BiFC; YN and YC fusions of full-length cDNAs transiently transformed into tobacco (Nicotiana benthamiana) leaves; confocal microscopy
# HDA6 (Arabidopsis) = biological target: T2, HDA6 (Arabidopsis); assay: as above
binder,measurement,setting,value
"FVE/MSI4 (protein, UniProt O22607 1-507) MESDEAAAVSPQATTPSGGTGASGPKKRGRKPKTKEDSQTPSSQQQSDVKMKESGKKTQQSPSVDEKYSQWKGLVPILYDWLANHNLVWPSLSCRWGPQLEQATYKNRQRLYLSEQTDGSVPNTLVIANCEVVKPRVAAAEHISQFNEEARSPFVKKYKTIIHPGEVNRIRELPQNSKIVATHTDSPDVLIWDVETQPNRHAVLGAANSRPDLILTGHQDNAEFALAMCPTEPFVLSGGKDKSVVLWSIQDHITTIGTDSKSSGSIIKQTGEGTDKNESPTVGPRGVYHGHEDTVEDVAFSPTSAQEFCSVGDDSCLILWDARTGTNPVTKVEKAHDADLHCVDWNPHDDNLILTGSADNTVRLFDRRKLTANGVGSPIYKFEGHKAAVLCVQWSPDKSSVFGSSAEDGLLNIWDYDRVSKKSDRAAKSPAGLFFQHAGHRDKVVDFHWNASDPWTIVSVSDDCETTGGGGTLQIWRMSDLIYRPEEEVVAELEKFKSHVMTCASKP",binding,FLD (Arabidopsis),binds
same,binding,HDA6 (Arabidopsis),binds
